Experimental data published in patent US20100172907A1.
No constants are given. Whether binding was seen depends on the method and setting. A result given as binding can be weak or reduced; the word gives no strength.

What was measured:
[1] = biological target: amyloid plaques in the brain of APP/PS2 double transgenic mice; assay: in vivo plaque decoration, 2 mg i.v. at day 0, 3 and 6, sacrifice at day 9; confocal microscopy of cryostat sections, goat anti-human IgG-Cy3, counterstain BAP-2-Alexa488
[2] = biological target: amyloid plaques in the brain of APP/PS2 double transgenic mice; assay: in vivo plaque decoration after 3 x 2 mg i.v., confocal microscopy

B1: MS-R #7.9.H7 IgG1 (antibody, V domains shown)
VH: QVELVESGGGLVQPGGSLRLSCAASGFTFSSYAMSWVRQAPGKGLEWVSAINASGTRTYYADSVKGRFTISRDNSKNTLYLQMNSLRAEDTAVYYCARGKGNTHKPYGYVRYFDVWGQGTLVTVSS
VL: DIVLTQSPATLSLSPGERATLSCRASQSVSSSYLAWYQQKPGQAPRLLIYGASSRATGVPARFSGSGSGTDFTLTISSLEPEDFATYYCLQIYNMPITFGQGTKVEIKR
With B1 the binding [1] was “binds” and the binding [2] was “binds”.
